# Changes are numbered by the printed parent chain. Numbers in names are those of the source. Results are given in words; binding and its absence hold for the method and conditions named. Some binding calls cover weakened binding; strength is not graded here. Sequences can lack the tags named with a protein.
# B1: ActRIIB-Fc:ActRIIB(L79E)-Fc heterodimer (Fc fusion)
# chain 1: GRGEAETRECIYYNANWELERTNQSGLERCEGEQDKRLHCYASWRNSSGTIELVKKGCWEDDFNCYDRQECVATEENPQVYFCCCEGNFCNERFTHLPEAGGPEVTYEPPPTAPT
# chain 2: B1 chain 1 with E60L
# notes: also called ActRIIB-Fc:ActRIIB(L79E)-Fc heteromer; not shown: linker and engineered G1Fc; linker and complementary engineered G1Fc
# Biological target: T1, BMP6 (UniProt P22004 382-513, limits assumed)
# T1 sequence (looked up): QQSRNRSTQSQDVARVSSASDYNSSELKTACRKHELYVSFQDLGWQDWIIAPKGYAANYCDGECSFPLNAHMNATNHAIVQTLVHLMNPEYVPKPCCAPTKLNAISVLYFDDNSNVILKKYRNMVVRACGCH
# Experiment: SPR (Biacore), 37 C
binder,measurement,value
B1,binding,binds

# Reference: patent publication US20200055919A1 (ACCELERON PHARMA, published 2020)
